Results reported in patent US20250257111A1, “Supramolecular Complex of a Biomolecule” (Cambridge Enterprise Limited, priority 2022, published 2025).

What was measured:
[1] = 1H NMR quantification of on-resin selective isolation from a peptide mixture
[2] = test system: 1:1 complex of F′GG-CB[8]; test: ITC: secondary association of tripeptides with the 1:1 complex of F′GG-CB[8]; assay type: binding; conditions: for ΔHa / −TΔSa: ITC, 10 mM phosphate buffer pH 7.0, 298 K, averaged with three replicates
Procedure: Isothermal titration calorimetry (ITC) was employed to study binding thermodynamics of heteropeptide dimerization (FIG. 2c and additional data not shown). Titration of F′GG (3.0 mM) into CB[8](0.1 mM) led to a stepwise binding curve with two transitions at molar ratios of 1.0 and 2.0 (FIG. 2c). The first-step binding constant (K1) is 6.6×10^5 M^−1, while the second-step (K2) is 9.4×10^3 M^−1. This indicates negative cooperativity where K1>K2^18,19,23 Such favourable 1:1 complexation enables secondary access of electron-rich aromatic peptides.
ITC experiments were operated on a Malvern MicroCal Auto-ITC200 apparatus at 298 K in 10 mM phosphate buffer with pH 7.0. In a of 1 injection of 0.6 μL and 32 consecutive injections of 1.2 μL with 90 s intervals between injections. The first data point was removed before analysis. The ITC data were fitted by MicroCal Analysis Centre software using one set of sites model. In a typical experiment for homoternary complexation, the host molecule (CB[8]) was loaded in the sample cell with a concentration of 0.1 mM, and the guest peptide was loaded in the syringe with a concentration of 2.0 mM. The injection and interval settings were the same as above. The first data point was removed from the data set before analysis. The obtained ITC curves were fitted by MicroCal Analysis Centre software using sequential binding model. All parameters were averaged with three replicates, s.d. n=3.

[3] = UV quantification of on-resin recognition of WGG
[4] = UV quantification of insulin on-resin recognition, 8-day storage and on-demand release; assay type: physicochemical
Procedure: UV spectra were obtained on a Cary 4000 Ultravioletvisible Spectrometer. A pair of quartz cuvettes with 2 mm gap was used. Double beam mode with a fixed 2 nm spectral bandwidth and baseline correction were selected. In a typical run, 300 μl of 1 mM solution was transferred to the quartz cuvette and was scanned compared to phosphate buffer in D2O. UV spectra were obtained in the linear absorption range (0.2-0.8) for better quantification.
1 N HCl was immediately added to reach acid concentration of 5 mM. […] In a typical experiment, 8 μmol F′GGGGG equivalent of resin H2O suspension was added to a 12 ml syringe with a polyester frit (r=8.0 mm, h=2.0 mm). After H2Owas drained, 8 ml of 0.1 mM CB[8] solution was added to the resin and the plunge and a stopper were assembled to the syringe to form a sealed chamber. The syringe was transferred onto a wrist-action shaker and shaken for 12 hours. […] Then, the liquid (resin-treated solution) in syringe was drained thoroughly and the resin was washed with H2Oonce. After that, 0.8 ml of 2 mM DMADA solution (in 5 mM of HCl) was added to the resin and shaken gently for an additional 3 hours. The solution (released solution) was drained.
The 8-day storage and release experiment was conducted as follows. 9 syringes were prepared each with 8 μmol F′GGGGG equivalent of resin H2Osuspension. […] All syringes with the resin were kept at room temperature. Starting from day 0 to day 8, on each day, a syringe with resin was added with 0.8 ml of 2 mM DMADA solution (to get released solution, one per day). All yielded solutions were analyzed on UV spectroscopy immediately. Numbers to calculate released percentage in FIG. 4g were absorbance at 276 nm.

[5] = cycle 0 (original mixture WGG, KGG, EGG, LGG 1.0 mM, CB[8] 1.0 mM)

NC(=O)CNC(=O)CNC(=O)[C@@H](N)CCC(=O)O [EGG] (H-Glu-Gly-Gly-NH2)
percentage (%) within peptide mixture [1, 5]: 27.7% | percentage (%) within peptide mixture ([1]; cycle 1 released solution): 12.7% | percentage (%) within peptide mixture ([1]; cycle 2 released solution): 3.5% | percentage (%) within peptide mixture ([1]; cycle 3 released solution): 2.4%

NC(=O)CNC(=O)CNC(=O)[C@@H](N)Cc1ccccc1 [FGG, (S)-2-amino-N-(2-((2-amino-2-oxoethyl)amino)-2-oxoethyl)-3-phenylpropanamide] (H-Phe-Gly-Gly-NH2)
ΔHa [2]: -14.4 ± 0.4 kcal/mol | −TΔSa [2]: 6.8 ± 0.3 kcal/mol

NCC(=O)N[C@@H](Cc1ccccc1)C(=O)NCC(N)=O [GFG, (S)—N-(2-amino-2-oxoethyl)-2-(2-aminoacetamido)-3-phenylpropanamide] (H-Gly-Phe-Gly-NH2)
ΔHa [2]: -9.1 ± 0.4 kcal/mol | −TΔSa [2]: 2.6 ± 0.4 kcal/mol

NCC(=O)NCC(=O)N[C@@H](Cc1ccccc1)C(N)=O [GGF, (S)-2-(2-(2-aminoacetamido)acetamido)-3-phenylpropanamide] (H-Gly-Gly-Phe-NH2)
ΔHa [2]: -7.5 ± 0.2 kcal/mol | −TΔSa [2]: 1.5 ± 0.2 kcal/mol

NCC(=O)NCC(=O)N[C@@H](Cc1ccc2ccccc2c1)C(N)=O [GGNp, (S)-2-(2-(2-aminoacetamido)acetamido)-3-(naphthalen-2-yl)propanamide] (H-Gly-Gly-[2Nal]-NH2)
ΔHa [2]: -12.0 ± 0.1 kcal/mol | −TΔSa [2]: 5.2 ± 0.1 kcal/mol

NCC(=O)N[C@@H](Cc1ccc2ccccc2c1)C(=O)NCC(N)=O [GNpG, (S)—N-(2-amino-2-oxoethyl)-2-(2-aminoacetamido)-3-(naphthalen-2-yl)propanamide] (H-Gly-[2Nal]-Gly-NH2)
ΔHa [2]: -12.7 ± 0.4 kcal/mol | −TΔSa [2]: 5.6 ± 0.4 kcal/mol

NCC(=O)N[C@@H](Cc1c[nH]c2ccccc12)C(=O)NCC(N)=O [GWG, (S)—N-(2-amino-2-oxoethyl)-2-(2-aminoacetamido)-3-(1H-indol-3-yl)propanamide] (H-Gly-Trp-Gly-NH2)
ΔHa [2]: -11.9 ± 0.1 kcal/mol | −TΔSa [2]: 5.0 ± 0.1 kcal/mol

NCC(=O)N[C@@H](Cc1ccc(O)cc1)C(=O)NCC(N)=O [GYG] (H-Gly-Tyr-Gly-NH2)
ΔHa [2]: -4.7 ± 0.2 kcal/mol | −TΔSa [2]: -0.2 ± 0.3 kcal/mol

NCCCC[C@H](N)C(=O)NCC(=O)NCC(N)=O [KGG, (S)-2,6-diamino-N-(2-((2-amino-2-oxoethyl)amino)-2-oxoethyl)hexanamide] (H-Lys-Gly-Gly-NH2)
percentage (%) within peptide mixture [1, 5]: 22.6% | percentage (%) within peptide mixture ([1]; cycle 1 released solution): 7.9% | percentage (%) within peptide mixture ([1]; cycle 2 released solution): 2.2% | percentage (%) within peptide mixture ([1]; cycle 3 released solution): 1.6%

CC(C)C[C@H](N)C(=O)NCC(=O)NCC(N)=O [LGG] (H-Leu-Gly-Gly-NH2)
percentage (%) within peptide mixture [1, 5]: 25.2% | percentage (%) within peptide mixture ([1]; cycle 1 released solution): 6.7% | percentage (%) within peptide mixture ([1]; cycle 2 released solution): 7.6% | percentage (%) within peptide mixture ([1]; cycle 3 released solution): 1.0%

NC(=O)CNC(=O)CNC(=O)[C@@H](N)Cc1ccc2ccccc2c1 [NpGG, (S)-2-amino-N-(2-((2-amino-2-oxoethyl)amino)-2-oxoethyl)-3-(naphthalen-2-yl) propanamide] (H-[2Nal]-Gly-Gly-NH2)
ΔHa [2]: -14.6 ± 0.2 kcal/mol | −TΔSa [2]: 7.0 ± 0.2 kcal/mol

NC(=O)CNC(=O)CNC(=O)[C@@H](N)Cc1c[nH]c2ccccc12 [WGG, (S)-2-amino-N-(2-((2-amino-2-oxoethyl)amino)-2-oxoethyl)-3-(1H-indol-3-yl) propanamide] (H-Trp-Gly-Gly-NH2)
ΔHa [2]: -13.3 ± 0.2 kcal/mol | −TΔSa [2]: 5.6 ± 0.2 kcal/mol | ratio of hetero- and homopeptide dimers (R) ([2]; equimolar mixture of F′GG, CB[8] and XGG, social self-sorting): 2291 | absorption efficiency for on-resin recognition ([3]; WGG-CB[8] (1.0 mM) with F′GGGGG-resin (10.0 mM), 25° C., 10 min): 77% | on-resin recycling efficiency ([3]; WGG-CB[8], 3 cycles, same batch of resin, release by DMADA): above 98% | recognition of free WGG by physical absorption ([3]; without CB[8], F′GGGGG-resin): 19% | final yield of WGG ([1]; after 3 cycles of selective separation (77% x77% x77%)): 45.6% | percentage (%) within peptide mixture [1, 5]: 26% and 24.5% | percentage (%) within peptide mixture ([1]; cycle 1 released solution): 72.7% | percentage (%) within peptide mixture ([1]; cycle 2 released solution): 86.7% | percentage (%) within peptide mixture ([1]; cycle 3 released solution): > 95% and 95.0% | yield of the selectively separated WGG ([1]; single cycle): 77%

NC(=O)CNC(=O)CNC(=O)[C@@H](N)Cc1ccc(O)cc1 [YGG] (H-Tyr-Gly-Gly-NH2)
ΔHa [2]: -9.6 ± 0.1 kcal/mol | −TΔSa [2]: 3.6 ± 0.2 kcal/mol

insulin: Insulin (Human Recombinant), purchased; widely-used biopharmaceutical for diabetes treatment
UV absorbance at 276 nm, original ([4]; day 0): 0.2351 abs | UV absorbance at 276 nm, resin-treated ([4]; day 0): 0.01213 abs | UV absorbance at 276 nm, original ([4]; day 2): 0.2351 abs | UV absorbance at 276 nm, resin-treated ([4]; day 2): 0.00845 abs | UV absorbance at 276 nm, original ([4]; day 5): 0.2351 abs | UV absorbance at 276 nm, resin-treated ([4]; day 5): 0.01349 abs | UV absorbance at 276 nm, original ([4]; day 8): 0.2351 abs | UV absorbance at 276 nm, resin-treated ([4]; day 8): 0.01162 abs

Values joined by “and” are separate entries in the source; they are usually repeats but may differ in a detail not shown here. Equal values may be shown once. Square brackets hold non-standard residues; d marks the D form. Peptide text beside a SMILES is read from it. 2Nal = N[C@@H](Cc1ccc2ccccc2c1)C(=O)O
